For test [1], the target named is HA-tagged DDB2 lacking the N-terminal 40 amino acids (human) (UniProt Q92466). The test can be described thus: co-IP; data not shown; co-immunoprecipitation of CUL4A with HA-DDB2 from WI38 VA13 transformants.
Test [2] concerns the target HA-tagged wild-type DDB2 (human) (UniProt Q92466). The description is as above.
Test [3] has as its target HA-tagged DDB2 lacking the N-terminal 40 amino acids (human) (UniProt Q92466). The experiment in a line: co-IP; soluble extracts (CSK buffer with 0.3 M NaCl) of WI38 VA13 cells stably expressing HA-DDB2, anti-HA (3F10) agarose beads overnight at 4°C, washed with CSK buffer with 0.3 M NaCl, eluted with SDS sample buffer.
The target of test [4] is HA-tagged wild-type DDB2 (human) (UniProt Q92466). Described as above.
The next test has as its target FLAG-DDB1 (UniProt Q16531). The test can be described thus: SEC; FLAG-DDB1–DDB2 complex (30 μg) incubated on ice for 1 h with 90 μg CUL4A–RBX1 complex, Superdex 200 PC 3.2/30 in 40 mM Tris–HCl pH 7.5, 1 mM EDTA, 0.1 M NaCl, 10% glycerol, 0.01% Triton X-100, 1 mM DTT; fractions containing the four subunits determined by SDS-PAGE and silver staining; both purified.

By UniProt entry, the sequences of proteins in these tests, tags left out. Where a name states a change or a piece, a line headed by the entry shows the natural chain unless it says otherwise. Chains listed by the source or under a name are the forms on record and can include a tag or linker.
UniProt Q92466: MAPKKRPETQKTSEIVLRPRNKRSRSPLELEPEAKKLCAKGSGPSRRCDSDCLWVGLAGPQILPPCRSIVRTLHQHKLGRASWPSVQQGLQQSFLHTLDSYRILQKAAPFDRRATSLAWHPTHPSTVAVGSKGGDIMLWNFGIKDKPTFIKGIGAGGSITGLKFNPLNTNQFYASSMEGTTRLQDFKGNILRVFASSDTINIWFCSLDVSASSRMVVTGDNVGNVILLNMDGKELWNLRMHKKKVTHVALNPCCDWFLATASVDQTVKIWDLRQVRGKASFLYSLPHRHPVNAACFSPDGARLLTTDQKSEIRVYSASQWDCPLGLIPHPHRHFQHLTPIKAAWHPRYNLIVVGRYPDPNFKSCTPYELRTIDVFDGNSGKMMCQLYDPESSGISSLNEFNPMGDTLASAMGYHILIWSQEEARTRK
DDB2-BP5KR (recombinant) (Q92466, form named): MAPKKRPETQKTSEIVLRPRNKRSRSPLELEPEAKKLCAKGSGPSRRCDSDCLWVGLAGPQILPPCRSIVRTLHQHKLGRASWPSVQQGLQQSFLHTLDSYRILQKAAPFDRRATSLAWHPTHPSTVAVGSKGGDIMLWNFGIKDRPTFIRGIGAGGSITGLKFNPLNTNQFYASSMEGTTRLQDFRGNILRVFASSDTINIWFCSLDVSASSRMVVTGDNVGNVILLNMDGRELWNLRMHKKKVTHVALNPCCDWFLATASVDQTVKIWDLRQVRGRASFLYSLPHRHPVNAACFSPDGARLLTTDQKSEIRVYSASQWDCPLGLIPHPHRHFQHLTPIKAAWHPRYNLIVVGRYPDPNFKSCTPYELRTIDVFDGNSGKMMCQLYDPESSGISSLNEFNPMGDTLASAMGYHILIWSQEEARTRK
DDB2-Ndel/BP5KR (recombinant) (Q92466, form named): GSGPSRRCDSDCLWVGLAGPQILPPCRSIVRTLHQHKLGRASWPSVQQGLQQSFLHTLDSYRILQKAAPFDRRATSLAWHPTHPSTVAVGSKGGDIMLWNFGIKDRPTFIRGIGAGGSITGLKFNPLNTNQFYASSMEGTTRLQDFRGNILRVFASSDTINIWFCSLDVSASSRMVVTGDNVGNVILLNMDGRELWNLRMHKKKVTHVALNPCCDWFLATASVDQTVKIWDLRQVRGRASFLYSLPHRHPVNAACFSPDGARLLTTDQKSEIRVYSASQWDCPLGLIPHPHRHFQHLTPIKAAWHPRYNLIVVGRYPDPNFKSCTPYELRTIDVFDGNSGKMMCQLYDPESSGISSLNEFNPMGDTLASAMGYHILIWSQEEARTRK
UniProt Q16531: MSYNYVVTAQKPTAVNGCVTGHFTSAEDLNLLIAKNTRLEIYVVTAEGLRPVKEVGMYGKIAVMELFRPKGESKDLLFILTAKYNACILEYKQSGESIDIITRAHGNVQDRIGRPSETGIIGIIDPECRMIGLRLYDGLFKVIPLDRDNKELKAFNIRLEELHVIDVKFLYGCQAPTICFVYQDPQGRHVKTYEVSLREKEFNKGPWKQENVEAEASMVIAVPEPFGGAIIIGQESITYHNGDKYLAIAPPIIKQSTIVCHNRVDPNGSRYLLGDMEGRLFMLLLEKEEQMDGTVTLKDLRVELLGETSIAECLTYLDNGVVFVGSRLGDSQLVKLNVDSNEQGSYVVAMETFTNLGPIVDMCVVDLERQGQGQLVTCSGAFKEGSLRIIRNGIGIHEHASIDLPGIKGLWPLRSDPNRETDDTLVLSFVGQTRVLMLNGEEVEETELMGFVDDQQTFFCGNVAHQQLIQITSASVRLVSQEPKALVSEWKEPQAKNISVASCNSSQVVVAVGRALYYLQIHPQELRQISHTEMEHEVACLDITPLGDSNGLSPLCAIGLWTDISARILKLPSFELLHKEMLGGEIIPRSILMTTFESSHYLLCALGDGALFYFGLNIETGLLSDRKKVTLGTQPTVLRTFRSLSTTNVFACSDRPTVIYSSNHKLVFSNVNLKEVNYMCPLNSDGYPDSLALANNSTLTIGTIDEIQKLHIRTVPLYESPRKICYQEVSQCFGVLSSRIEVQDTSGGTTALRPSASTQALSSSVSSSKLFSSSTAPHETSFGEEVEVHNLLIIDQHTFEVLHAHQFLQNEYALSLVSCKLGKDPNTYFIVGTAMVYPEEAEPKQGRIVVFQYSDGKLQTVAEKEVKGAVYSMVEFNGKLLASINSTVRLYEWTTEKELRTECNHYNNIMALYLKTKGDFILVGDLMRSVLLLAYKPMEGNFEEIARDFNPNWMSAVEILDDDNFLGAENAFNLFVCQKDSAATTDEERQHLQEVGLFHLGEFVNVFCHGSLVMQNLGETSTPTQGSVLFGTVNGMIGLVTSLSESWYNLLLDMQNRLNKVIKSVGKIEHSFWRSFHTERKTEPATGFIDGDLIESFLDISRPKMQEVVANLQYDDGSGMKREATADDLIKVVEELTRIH
UniProt Q13619: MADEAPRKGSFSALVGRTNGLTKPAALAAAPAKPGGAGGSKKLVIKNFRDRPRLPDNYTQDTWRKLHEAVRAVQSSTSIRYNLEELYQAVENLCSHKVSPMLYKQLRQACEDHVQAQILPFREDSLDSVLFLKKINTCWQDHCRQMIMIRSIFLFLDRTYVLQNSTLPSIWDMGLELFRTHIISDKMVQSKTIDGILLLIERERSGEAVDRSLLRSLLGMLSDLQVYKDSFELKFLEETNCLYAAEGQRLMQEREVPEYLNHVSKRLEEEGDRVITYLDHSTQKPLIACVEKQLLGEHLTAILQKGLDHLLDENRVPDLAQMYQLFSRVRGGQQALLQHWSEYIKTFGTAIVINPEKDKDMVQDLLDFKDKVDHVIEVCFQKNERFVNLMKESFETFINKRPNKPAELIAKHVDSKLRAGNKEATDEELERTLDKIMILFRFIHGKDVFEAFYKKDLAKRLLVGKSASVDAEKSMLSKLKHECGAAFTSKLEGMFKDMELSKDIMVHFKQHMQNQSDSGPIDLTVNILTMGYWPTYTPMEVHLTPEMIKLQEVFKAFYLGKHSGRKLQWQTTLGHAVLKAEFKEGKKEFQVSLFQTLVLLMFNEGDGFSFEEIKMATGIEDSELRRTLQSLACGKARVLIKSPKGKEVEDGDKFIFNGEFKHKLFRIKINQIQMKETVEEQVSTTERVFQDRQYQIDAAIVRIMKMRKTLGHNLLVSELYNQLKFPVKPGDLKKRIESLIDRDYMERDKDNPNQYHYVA

These are yes or no findings as the source states them, for the method shown. For some assays here: In cells and extracts the contact can be indirect. Some results given as binding are weak or reduced against the parent protein; the word gives no strength.

As to CUL4A (from UniProt Q13619 1-759), the binding entry in test [1] is reported as “binds”. Take “CUL4A (from UniProt Q13619 1-759) (other; other documents disagree on this pair)”: in test [2], the binding result is listed as “binds”. Take DDB1 (from UniProt Q16531 1-1140): the binding entry in test [3] and in test [4] was “binds” in each case.

In the case of “DDB2 wild type (recombinant) (from UniProt Q92466 1-427)”, in the test with FLAG-DDB1, the binding result is reported as “binds”. With “DDB2-BP5KR (recombinant) (from UniProt Q92466 1-427)”, in the test with FLAG-DDB1, the binding result was “binds”.

Consider “DDB2-Ndel (recombinant) (from UniProt Q92466 41-427) (domain or fragment)”, for which the binding entry in the test with FLAG-DDB1 is recorded as “binds”. The same measure, in the same setting: the same measure for “DDB2-Ndel/BP5KR (recombinant) (from UniProt Q92466 41-427) (domain or fragment)”: “binds”.

The values above are taken from publication PMC4330392.
